The source of these data is article PMC9515143, “Phosphorylation of Jhd2 by the Ras-cAMP-PKA(Tpk2) pathway regulates histone modifications and autophagy” (Nature Communications, 2022).

Changes are numbered by the printed parent chain. Results are given in words; binding and its absence hold for the method and conditions named. In cells and extracts the contact can be indirect. Here binding means that the protein was enriched with, or labelled near, the bait; the list need not be complete. For part of these data: Where a sequence is shown, tags or fusion partners need not be part of it.

Common to all, as to test: affinity purification with mass spectrometry; yeast lysate in TAP binding buffer (40 mM HEPES-KOH pH 7.5, 350 mM NaCl, 0.1% Tween-20), anti-FLAG IP resin or IgG beads 4 °C 4 hr, on-bead trypsin digestion, LC-MS
The target of test [1] is T1, Tpk2-TAP (S. cerevisiae (budding yeast)) (UniProt P06245).
T1 sequence: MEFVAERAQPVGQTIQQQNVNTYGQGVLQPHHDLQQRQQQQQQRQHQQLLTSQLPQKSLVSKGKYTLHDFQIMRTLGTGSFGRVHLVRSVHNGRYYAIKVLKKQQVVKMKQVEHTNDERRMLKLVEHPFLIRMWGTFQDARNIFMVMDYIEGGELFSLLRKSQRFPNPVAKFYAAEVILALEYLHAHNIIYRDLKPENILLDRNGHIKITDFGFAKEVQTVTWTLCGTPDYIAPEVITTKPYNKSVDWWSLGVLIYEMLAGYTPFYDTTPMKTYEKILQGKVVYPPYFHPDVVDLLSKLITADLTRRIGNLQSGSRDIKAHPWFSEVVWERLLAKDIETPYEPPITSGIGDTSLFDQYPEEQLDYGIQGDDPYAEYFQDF

Test [2] deals with T2, Jhd2-FLAG (S. cerevisiae (budding yeast)) (UniProt P47156).
T2 sequence (chain, phosphoserine at 321 and 340 (phosphorylated in vivo by Tpk2; extent not stated)): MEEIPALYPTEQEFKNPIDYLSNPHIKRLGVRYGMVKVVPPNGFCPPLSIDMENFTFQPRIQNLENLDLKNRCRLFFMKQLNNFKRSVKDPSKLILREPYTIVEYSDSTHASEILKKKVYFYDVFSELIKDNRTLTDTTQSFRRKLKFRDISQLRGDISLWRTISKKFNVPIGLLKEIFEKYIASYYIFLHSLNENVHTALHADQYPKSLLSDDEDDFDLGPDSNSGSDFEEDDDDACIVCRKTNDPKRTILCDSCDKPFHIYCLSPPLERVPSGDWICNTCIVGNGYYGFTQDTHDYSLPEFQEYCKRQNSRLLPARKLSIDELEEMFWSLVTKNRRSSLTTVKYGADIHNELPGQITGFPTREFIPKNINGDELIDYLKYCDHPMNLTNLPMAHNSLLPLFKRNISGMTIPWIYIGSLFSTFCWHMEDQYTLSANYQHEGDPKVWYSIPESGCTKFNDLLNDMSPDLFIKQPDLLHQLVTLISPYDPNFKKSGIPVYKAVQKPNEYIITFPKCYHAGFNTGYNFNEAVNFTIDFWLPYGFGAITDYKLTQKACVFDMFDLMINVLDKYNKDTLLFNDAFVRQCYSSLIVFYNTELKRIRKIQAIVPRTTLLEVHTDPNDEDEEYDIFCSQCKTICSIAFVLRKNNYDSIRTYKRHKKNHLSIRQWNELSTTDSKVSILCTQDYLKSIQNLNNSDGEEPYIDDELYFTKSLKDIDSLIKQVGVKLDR

The target of test [3] is T3, Jhd2-S321A, S340A-FLAG (S. cerevisiae (budding yeast)) (UniProt P47156).
T3 sequence: T2 sequence (chain, phosphoserine at 321 and 340 (phosphorylated in vivo by Tpk2; extent not stated)) with S321A, S340A

For “Jhd2 (in Tpk2-TAP cells) (from UniProt P47156 1-728) (enzyme)”, the binding result in test [1] is “binds”.

B1: Tpk1 (enzyme, UniProt P06244 1-397)
chain: MSTEEQNGGGQKSLDDRQGEESQKGETSERETTATESGNESKSVEKEGGETQEKPKQPHVTYYNEEQYKQFIAQARVTSGKYSLQDFQILRTLGTGSFGRVHLIRSRHNGRYYAMKVLKKEIVVRLKQVEHTNDERLMLSIVTHPFIIRMWGTFQDAQQIFMIMDYIEGGELFSLLRKSQRFPNPVAKFYAAEVCLALEYLHSKDIIYRDLKPENILLDKNGHIKITDFGFAKYVPDVTYTLCGTPDYIAPEVVSTKPYNKSIDWWSFGILIYEMLAGYTPFYDSNTMKTYEKILNAELRFPPFFNEDVKDLLSRLITRDLSQRLGNLQNGTEDVKNHPWFKEVVWEKLLSRNIETPYEPPIQQGQGDTSQFDKYPEEDINYGVQGEDPYADLFRDF
Turning to B1, the binding entry in test [2] is reported as “binds”.

B2: Tpk2 (enzyme, UniProt P06245 1-380)
chain: T1 sequence
For B2, the binding result in test [2] is recorded as “binds”.

B3: Rpd3 (enzyme, UniProt P32561 1-433)
chain: MVYEATPFDPITVKPSDKRRVAYFYDADVGNYAYGAGHPMKPHRIRMAHSLIMNYGLYKKMEIYRAKPATKQEMCQFHTDEYIDFLSRVTPDNLEMFKRESVKFNVGDDCPVFDGLYEYCSISGGGSMEGAARLNRGKCDVAVNYAGGLHHAKKSEASGFCYLNDIVLGIIELLRYHPRVLYIDIDVHHGDGVEEAFYTTDRVMTCSFHKYGEFFPGTGELRDIGVGAGKNYAVNVPLRDGIDDATYRSVFEPVIKKIMEWYQPSAVVLQCGGDSLSGDRLGCFNLSMEGHANCVNYVKSFGIPMMVVGGGGYTMRNVARTWCFETGLLNNVVLDKDLPYNEYYEYYGPDYKLSVRPSNMFNVNTPEYLDKVMTNIFANLENTKYAPSVQLNHTPRDAEDLGDVEEDSAEAKDTKGGSQYARDLHVEHDNEFY
For B3, the binding entry in test [2] and in test [3] was “binds” in each case.

B4: Tpk3 (enzyme, UniProt P05986 1-398)
chain: MYVDPMNNNEIRKLSITAKTETTPDNVGQDIPVNAHSVHEECSSNTPVEINGRNSGKLKEEASAGICLVKKPMLQYRDTSGKYSLSDFQILRTLGTGSFGRVHLIRSNHNGRFYALKTLKKHTIVKLKQVEHTNDERRMLSIVSHPFIIRMWGTFQDSQQVFMVMDYIEGGELFSLLRKSQRFPNPVAKFYAAEVCLALEYLHSKDIIYRDLKPENILLDKNGHIKITDFGFAKYVPDVTYTLCGTPDYIAPEVVSTKPYNKSVDWWSFGVLIYEMLAGYTPFYNSNTMKTYENILNAELKFPPFFHPDAQDLLKKLITRDLSERLGNLQNGSEDVKNHPWFNEVIWEKLLARYIETPYEPPIQQGQGDTSQFDRYPEEEFNYGIQGEDPYMDLMKEF
For B4, in test [2], the binding entry is on record as “binds”.
